Assay results taken from PubChem BioAssay AID485353 (National Center for Advancing Translational Sciences (NCATS), 2010).
Hit rate of the full screen: of about 330,000 compounds, about 610 (0.18%) were called active. The inconclusive results got no clear call from the source; some entries with a clear call stand among them for comparison. Calls follow the shape of the full dose curve. A potency beside an inconclusive call is a rough fit, not a confirmed value.
Potency is read from the fitted curve at half-maximal effect.

Assay: qHTS of Yeast-based Assay for SARS-CoV PLP; also: nearly all actives have a fitted effect of over 55% in size; as to activity, positive = growth rescue: 0% is about no effect
Details: S. cerevisiae expressing SARS-CoV PLpro; Potency: growth rescue; activity, positive = growth rescue: at 32.9 µM (top of the series)
For `CC(=O)Nc1ccccc1C(=O)C(=O)Nc1ccc(C)c(F)c1`, the Potency was inconclusive: 2 µM [activator, partial curve]. In the case of `Cc1ccc(/C=C/C(=O)c2ccccc(=O)c2O)c(C)c1`, the Potency is reported as inconclusive: 3.55 µM [activator, single point]. With `Clc1cccc(-c2nn3c(-c4cccc(Cl)c4)nnc3s2)c1` the Potency was inconclusive: 3.98 µM [activator, single point]. For `COc1cc(OC)cc(-c2nc3ccccc3c(=O)n2OC(=O)c2ccc(Br)cc2)c1`, the Potency was inconclusive: 20 µM [activator, single point]. With `COc1ccc(C(NC(C)=O)c2ccc3cccnc3c2O)c(OC)c1` (stereo unspecified) the Potency was active: 2.24 µM. In the case of `Cc1occc1C(=O)N/N=C/c1c(O)ccc2ccccc12`, the “activity, positive = growth rescue” value is reported as inactive: 14.1%. In the case of `CCOC(=O)c1cc(CC)sc1NC(=O)CC1Sc2ccc(C(F)(F)F)cc2NC1=O` (stereo unspecified), the Potency is reported as inconclusive: 22.4 µM [activator, single point]. For `Cn1c(=O)c2c(nc(N3CCCCCC3)n2CC(=O)c2ccc(Br)cc2)n(C)c1=O`, the Potency was inconclusive: 4.47 µM [activator, single point]. With `CNc1nc(-c2ccccc2)[n+](-c2ccc(C)cc2)s1` the Potency was inconclusive: 15.8 µM [activator, single point]. In the case of `CCOC(=O)N1CCN(C(=O)C2CCN(S(=O)(=O)c3cc(Cl)ccc3OCC)CC2)CC1`, the Potency is reported as inconclusive: 1.12 µM [activator, partial curve]. With `Cc1ccc(CNS(=O)(=O)c2c(C(=O)N3CCCCC3)c(C)n(C)c2C)cc1` the “activity, positive = growth rescue” value was inactive: -1.63%. For `O=C(COC(=O)C1(c2ccc(F)cc2)CCCC1)NCc1ccc2c(c1)OCO2`, the Potency was inconclusive: 8.91 µM [activator, single point]. With `O=C(Cn1ncc2c([nH]c3ccccc32)c1=O)NCC1CCN(Cc2ccccc2F)CC1` the Potency was inconclusive: 0.447 µM [activator, full curve]. With `N=c1c(C(=O)NCC2CCCO2)cc2c(=O)n3ccccc3nc2n1Cc1ccccc1` (stereo unspecified) the Potency was inconclusive: 11.2 µM [activator, single point]. With `Cn1c(=O)c2c(nc(SCC(=O)N3CCc4ccccc4C3)n2C)n(C)c1=O` the “activity, positive = growth rescue” value was inactive: 8.53%. In the case of `Cc1ccc(/C=C2\C(=O)NC(=S)N(c3cccc(F)c3)C2=O)o1`, the Potency is reported as inconclusive: 17.8 µM [activator, single point]. In the case of `O=C(Nc1ccc(S(=O)(=O)Nc2ncccn2)cc1)C(F)(F)F`, the Potency is reported as active: 5.01 µM. For `COc1ccccc1NCc1ccc([N+](=O)[O-])s1`, the Potency was inconclusive: 20 µM [activator, single point]. For `NS(=O)(=O)c1ccc(NC(=O)COC(=O)COc2ccc(Cl)cc2)cc1`, the “activity, positive = growth rescue” value was inactive: 0.214%. In the case of `COC(=O)c1cc(OC)c(OC)cc1NC(=O)c1csc(C)c1`, the Potency is reported as inconclusive: 11.2 µM [activator, single point]. For `CCCCN(CC)CCNC(=O)c1cc2c(=O)n(C)c3ccccc3c2n1C`, the Potency was inconclusive: 4.47 µM [activator, single point]. In the case of `O=C1c2ccc([N+](=O)[O-])cc2C(=O)N1c1ccc(Cl)cn1`, the “activity, positive = growth rescue” value is reported as inactive: 0.607%. In the case of `Cc1sc2nc(SCC(=O)N3CC(C)OC(C)C3)n(C)c(=O)c2c1C` (stereo unspecified), the Potency is reported as inconclusive: 1 µM [activator, partial curve]. In the case of `COc1ccc(Cc2nc(-c3cccc(C)c3)no2)cc1`, the Potency is reported as inconclusive: 2.82 µM [activator, single point]. In the case of `COc1ccc2nc(SCc3cccc(C)c3)nc(C)c2c1`, the Potency is reported as inconclusive: 0.316 µM [activator, full curve]. With `O=C(Nc1cccc2ncccc12)c1cc([N+](=O)[O-])ccc1Cl` the “activity, positive = growth rescue” value was inactive: -1.25%. In the case of `O=C(c1ccc(OC2CCN(Cc3ccccc3O)CC2)cc1)N1CCCCC1`, the Potency is reported as inconclusive: 5.01 µM [activator, partial curve]. For `O=C(Nc1nc(-c2ccccn2)cs1)C1CC1`, the Potency was inconclusive: 7.08 µM [activator, partial curve]. With `O=C(NCc1cccc(C(F)(F)F)c1)c1cccc(S(=O)(=O)NCc2ccccc2)c1` the “activity, positive = growth rescue” value was inactive: 0.745%. In the case of `Cc1ccc(Oc2nc(C(F)(F)F)nc3ccccc23)cc1`, the Potency is reported as inconclusive: 10 µM [activator, partial curve]. In the case of `CN(C)C(=O)C1C2NC(=S)N(c3ccc(Cl)cc3)C1(C)Oc1ccc(Cl)cc12` (stereo unspecified), the Potency is reported as inconclusive: 3.98 µM [activator, partial curve]. With `Cc1ccc(C(=O)/C=C/c2ccco2)c(O)c1` the Potency was inconclusive: 4.47 µM [activator, single point]. In the case of `Cc1cc(C(=O)CSc2nc(N)cc(N)n2)c(C)n1-c1cccc(F)c1`, the “activity, positive = growth rescue” value is reported as inactive: 8.42%. In the case of `O=C(N/N=C/c1ccco1)c1cc(-c2ccccc2)nc2ccccc12`, the Potency is reported as inconclusive: 11.2 µM [activator, partial curve]. With `c1ccc(CSC2=NNC(c3ccccn3)S2)cc1` (stereo unspecified) the Potency was inconclusive: 2.24 µM [activator, full curve, poor fit]. For `CC1(C)CC(=O)C2=C(C1)O[C@@]1(c3ccsc3)Cc3cc(C#N)ccc3C2O1`, the Potency was inconclusive: 3.55 µM [activator, single point]. In the case of `COc1ccc(-c2nn(-c3ccccc3)cc2C(=O)N(C)CC(=O)Nc2cccc(F)c2)cc1`, the “activity, positive = growth rescue” value is reported as inactive: -6.64%. For `Cc1cc(C(=O)N2CCC(C(F)(F)F)n3nccc32)on1` (stereo unspecified), the Potency was inconclusive: 3.98 µM [activator, single point]. In the case of `Fc1ccccc1CCNCc1ccccc1`, the Potency is reported as inconclusive: 22.4 µM [activator, single point]. With `Cc1cccc(-n2ncc3c2CCCC3NC(=O)C2CCOCC2)c1C` (stereo unspecified) the Potency was inconclusive: 4.47 µM [activator, single point]. For `CC(C)CCNS(=O)(=O)c1ccc(-c2ccc(S(=O)(=O)NCCC(C)C)cc2)cc1`, the Potency was inconclusive: 17.8 µM [activator, single point]. In the case of `CCOC(=O)c1cc(-c2ccc(/C=C3/C(=O)NC(=O)C(C#N)=C3C)o2)ccc1Cl`, the Potency is reported as inconclusive: 3.98 µM [activator, single point]. In the case of `CCC(=NNC(=O)c1ccc2c(c1)nc(C)n2CC)c1cc(F)ccc1O`, the Potency is reported as active: 10 µM. In the case of `Cc1nnc(SCC(=O)NCc2ccco2)n1-c1ccccc1`, the Potency is reported as inconclusive: 20 µM [activator, single point]. With `COc1ccccc1N(CC(=O)NC1CC2CCC1C2)S(=O)(=O)c1ccc(C)cc1` (stereo unspecified) the Potency was inconclusive: 3.55 µM [activator, full curve]. For `CC(=O)c1ccc(NC(=O)CSc2nnc(Cc3cccn3C)n2-c2ccc(F)cc2)cc1`, the Potency was inconclusive: 3.98 µM [activator, single point]. With `C[C@H](NC(=O)[C@H]1N2C(=O)c3ccccc3C2SC1(C)C)C(=O)N1CCN(C)CC1` (stereo partly specified) the “activity, positive = growth rescue” value was inactive: 14.2%. In the case of `C/C(=N\Nc1ccc(C(F)(F)F)cn1)c1ccc(S(=O)(=O)NCc2ccco2)cc1`, the “activity, positive = growth rescue” value is reported as inactive: 3.02%. With `CCSC(=O)NC1CCCCC1` the “activity, positive = growth rescue” value was inactive: -0.293%. With `COc1ccc(Cn2c(C3CC3)nc3ccc(NC(=O)c4cccnc4)cc3c2=O)cc1` the “activity, positive = growth rescue” value was inactive: -1.23%. In the case of `O=C(CC1c2ccccc2Oc2ccccc21)NCc1ccco1`, the Potency is reported as inconclusive: 3.16 µM [activator, single point]. For `O=C(NCCCCc1ccccc1)C12CN(Cc3ccccc3)CC1C(c1cccc([N+](=O)[O-])c1)=NO2` (stereo unspecified), the Potency was inconclusive: 3.98 µM [activator, partial curve]. In the case of `COc1ccccc1OCC(=O)NNC(=O)CCCC(=O)NNC(=O)COc1ccccc1OC`, the “activity, positive = growth rescue” value is reported as inactive: 7.98%. For `O=C(Nc1ccc(NC(=O)c2ccco2)cc1)c1ccc2c(c1)OCO2`, the Potency was inconclusive: 17.8 µM [activator, single point]. In the case of `Cc1cccc2nc(CSCc3ccco3)cn12`, the “activity, positive = growth rescue” value is reported as inactive: 1.89%. With `CCCOc1ccccc1OCC(=O)N1CCN(S(=O)(=O)c2ccc(Cl)cc2)CC1` the “activity, positive = growth rescue” value was inactive: -5.14%. With `O=C(O)[C@H]1CC=C[C@H]2CCN(Cc3ccc(Cl)c(Cl)c3)C(=O)[C@@H]12` the Potency was inconclusive: 12.6 µM [activator, single point]. In the case of `O=c1[nH]c2ccc(Br)cc2c(-c2ccccc2)c1N1CCOCC1`, the Potency is reported as inconclusive: 20 µM [activator, single point]. For `Cc1occc1C(=O)N1CCCC(Nc2ccc(C(C)C)cc2)C1` (stereo unspecified), the Potency was inconclusive: 20 µM [activator, single point]. In the case of `CCN(Cc1ccncc1)Cc1ccc(Br)cc1`, the “activity, positive = growth rescue” value is reported as inactive: 0.188%. For `COc1ccc(NC(=O)COC(=O)CCCN2C(=O)c3ccccc3C2=O)cc1Cl`, the Potency was inconclusive: 20 µM [activator, single point]. With `COCCNC(=S)NC(=O)CC12CC3CC(CC(C3)C1)C2` the Potency was inconclusive: 22.4 µM [activator, single point]. With `COc1ccc(/C=N/NC(=O)C(=O)N2CCCCCC2)cc1O` the Potency was inconclusive: 22.4 µM [activator, partial curve]. With `NNC(=O)c1nn(-c2ccccc2)cc1O` the Potency was active: 10 µM. For `COc1ccc(CN2CCNC(=O)C2CC(=O)NC2Cc3ccccc3C2)c(OC)c1` (stereo unspecified), the “activity, positive = growth rescue” value was inactive: -0.0429%. For `Cc1cc(NC(=O)CSc2nnc(-c3c[nH]c4ccccc34)n2-c2ccc(Cl)cc2)no1`, the Potency was inconclusive: 4.47 µM [activator, single point]. With `Cc1ccc(S(=O)(=O)N[C@H](C(=O)N2CCC(C(=O)N3CCC[C@H]3C(=O)O)CC2)C(C)C)cc1` the “activity, positive = growth rescue” value was inactive: -9.42%. With `O=C(N/N=C/c1c(O)ccc2ccccc12)c1[nH]ncc1Br` the Potency was inconclusive: 1.78 µM [activator, full curve]. In the case of `COc1cc(/C=C2/NC(=O)N(Cc3ccccc3F)C2=O)cc(OC)c1O`, the “activity, positive = growth rescue” value is reported as inactive: 2.09%. For `CCOC(=O)Cc1csc(NC(=O)c2ccc3ccccc3n2)n1`, the “activity, positive = growth rescue” value was inactive: -4.14%. With `COc1ccc(S(=O)(=O)NCCC(=O)NCc2cccs2)cc1` the Potency was inconclusive: 11.2 µM [activator, partial curve].
